Numbered stars: 1 amine (or outer) side, 2 acyl side, 3 side chain; on linkers, the order of the positions; unused ones are H or OH. Bridge positions count the residues as written; N and C are the ends. Square brackets hold non-standard residues; d marks the D form. * marks the point of attachment. DOTA = O=C(O)CN1CCN(CC(=O)O)CCN(CC(=O)*)CCN(CC(=O)O)CC1; TATA = O=C(CC[*:1])N1CN(C(=O)CC[*:2])CN(C(=O)CC[*:3])C1; Hyp = O=C(O)[C@@H]1C[C@@H](O)CN1; hArg = N=C(N)NCCCC[C@H](N)C(=O)O; Cba = N[C@@H](CC1CCC1)C(=O)O; βAla = NCCC(=O)O; Sar = CNCC(=O)O Bounds are passed on as bounds.

Experimental findings from paper PMC11373624 (Theranostics, 2024) are described below.

The data set is described as follows: general procedure: peptide synthesis; Rink resin. The conditions noted are these: whole synthesis.
Setting [1] is: scale 1.85 g resin, 0.54 mmol/g.

As for “{DOTA-βAla}-[Sar][Sar][Sar][Sar][Sar][Sar][Sar][Sar][Sar][Sar]A[hArg]DC[Hyp][Cba]VNPLCLHP[dD]W[hArg]C-NH2 (linker 14-21-28 via TATA; SMILES CC(C)C[C@@H]1NC(=O)[C@@H]2CSCCC(=O)N3CN(CN(C3)C(=O)CCSC[C@H](NC(=O)[C@H](CC(=O)O)NC(=O)[C@H](CCCCNC(=N)N)NC(=O)[C@H](C)NC(=O)CN(C)C(=O)CN(C)C(=O)CN(C)C(=O)CN(C)C(=O)CN(C)C(=O)CN(C)C(=O)CN(C)C(=O)CN(C)C(=O)CN(C)C(=O)CN(C)C(=O)CCNC(=O)CN3CCN(CC(=O)O)CCN(CC(=O)O)CCN(CC(=O)O)CC3)C(=O)N3C[C@H](O)C[C@H]3C(=O)N[C@@H](CC3CCC3)C(=O)N[C@@H](C(C)C)C(=O)N[C@@H](CC(N)=O)C(=O)N3CCC[C@H]3C(=O)N[C@@H](CC(C)C)C(=O)N2)C(=O)CCSC[C@@H](C(N)=O)NC(=O)[C@H](CCCCNC(=N)N)NC(=O)[C@H](Cc2c[nH]c3ccccc23)NC(=O)[C@@H](CC(=O)O)NC(=O)[C@@H]2CCCN2C(=O)[C@H](Cc2c[nH]cn2)NC1=O)”, where the note is “HPLC”, the “final HPLC purity” value is over 95%. In addition, under setting [1], the isolated mass is on record as 1312.4 mg and the isolated yield is given as 36.7%.
